From PubChem BioAssay AID2685 (National Center for Advancing Translational Sciences (NCATS), 2010) come the findings set out here.

Molecules are shown by their SMILES. Some of the results follow. The main result of the screen is listed elsewhere. These columns were measured beside it and carry no call. The list favours compounds with an active or inconclusive main result. Potencies come from curve fits of mixed quality, noted in brackets. Where a SMILES comes first, the peptide text is derived from it. The star is where a group is joined. Boc = CC(C)(C)OC(=O)*; Bn = c1ccc(C*)cc1

The experiment in a line: qHTS Assay for Lipid Storage Modulators in Drosophila S3 Cells.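 On cell number change: cells counted by Cell Tracker Red CMTPX staining in the red channel.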 Conditions: BODIPY lipid droplet fluorescence, 18-24 h; for cell number change: measured here: cell count max response, cells fed with added oleic acid. Summed up:
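Drosophila S3 cells loaded with oleic acid (400 uM, as added) and compounds at several concentrations; lipid droplets imaged by 488-nm laser-scanning cytometry, 500–530 nm intensity and object ratio to cell channel. Percent activity normalized to 20 uM Triacsin C.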
(In general: Quantitative high-throughput screening tests each substance at several concentrations.)

[1] abbreviates: measured here: cell number channel AC50, cells fed with added oleic acid.
Setting [2] is: measured here: lipid fluorescence (Fed channel) AC50, cells fed with added oleic acid.

Consider `O=C(NN1C(=O)c2ccccc2NC1c1ccc([N+](=O)[O-])o1)c1ccc([N+](=O)[O-])cc1` (centres undefined), for which the cell number change is -35.8%. Further, the concentration at half-maximal activity (AC50) under setting [1] is 29.1 µM [falling, single point]. Also, the AC50 under setting [2] was 2.06 µM [falling, partial curve, poor fit].
`O=C(NCc1ccco1)/C(=C\c1ccccc1)NC(=O)c1ccccc1`: the cell number change was -13.3%.
For the molecule `CCOC(=O)c1cc(CNC(=O)c2c(C)oc3c2CCCC3)c(C)o1`, the cell number change is -9.98%. Under setting [2], the AC50 is 20.6 µM [rising, single point].
On to `CCCC(=O)NC(=S)Nc1ccccc1C(F)(F)F`, for which the concentration at half-maximal activity (AC50) is 0.0058 µM [falling, full curve, poor fit] under setting [1] and 32.6 µM [falling, single point] under setting [2].
As to `COc1cccc2c1nc(C)c1cc(C)oc12`, the cell number change amounted to 26.7%. In addition, under setting [2], the AC50 was 0.651 µM [rising, full curve].
As to `Cc1cc(C(F)(F)F)nn2cnnc12`, the cell number change was found to be 24.9%.
With `CCCn1ncc(CN2CCC(n3nccc3NC(=O)CCc3ccccc3)CC2)c1C`, the cell number change was -31.5%. The half-maximal activity concentration (AC50) under setting [1] is 10.3 µM [falling, partial curve]. Further, the AC50 under setting [2] was 29.1 µM [falling, single point].
With `COc1ccc(-c2oc3ncnc(NCCCN4CCOCC4)c3c2-c2ccc(OC)cc2)cc1`, the cell number change was -56.1%. The half-maximal activity concentration (AC50) under setting [1] is 1.64 µM [rising, partial curve].
In the case of `CC(C)n1cc(/C=N/Nc2ccc(Cl)c(C(=O)O)c2)c2ccccc21`, the cell number change turned out to be 2.93%. For the same molecule, the AC50 under setting [1] was 0.00517 µM [rising, full curve, poor fit].
Consider `Cc1ccccc1[C@]1(C)ON(c2ccccc2C(F)(F)F)C1=O`, for which the cell number change was -89.4%. For the same molecule, the AC50 under setting [1] was 4.11 µM [falling, partial curve]. Moreover, the AC50 under setting [2] was 0.103 µM [falling, full curve, poor fit].
Turning to `COc1cccc(C2=CC(=O)C[C@H](c3ccc(F)cc3)C2)c1OC`, the cell number change is -51.2%. Further, under setting [1], the AC50 was 0.0058 µM [falling, full curve, poor fit].
With `O=C(Nc1ccc2c(c1)OCO2)c1n[nH]c(=O)c2ccccc12`, the cell number change is 2.34%. Besides, the AC50 under setting [2] is 6.51 µM [rising, single point].
On to `Cc1ccc(C)c(/C=C(\C(=O)O)c2ccc(S(=O)(=O)N3CCCCC3)s2)c1`, for which the cell number change was 38.3%. In addition, the AC50 under setting [1] was 0.92 µM [rising, full curve]. The AC50 under setting [2] was 0.731 µM [rising, partial curve, poor fit].
Turning to `CC(C)N(C(=O)COC(=O)[C@H](C)NC(=O)c1ccco1)c1ccccc1`, the cell number change was found to be 22.3%. Besides, under setting [2], the AC50 was 18.4 µM [falling, single point].
`CC1(C)CCSC(/C=C/c2ccccc2)=N1`: the cell number change was -30.8%. The AC50 under setting [1] was 29.1 µM [falling, single point].
In the case of `COC(C[C@H](O)C[C@H](O)[C@H](C)OCc1ccccc1)OC`, the cell number change was determined as 16.3%. In addition, under setting [2], the AC50 was 0.116 µM [rising, single point].
With `O=C(Nc1ccc2c(c1)OCO2)c1cc(Cl)ccn1`, the cell number change was -11.3%. The half-maximal activity concentration (AC50) under setting [2] was 0.00461 µM [falling, full curve, poor fit].
As for `CC(C)OC(=O)C(CC(=O)O)NCc1ccccc1` (centres undefined), the cell number change amounted to 7.78%.
Take `Cc1ccc(O)c(NC(=O)c2noc3c2CCCCC3)c1`: the cell number change is -41.2%. Moreover, the concentration at half-maximal activity (AC50) under setting [1] is 8.2 µM [falling, partial curve]. Under setting [2], the AC50 was 14.6 µM [falling, partial curve].
With `Cc1c(C(=O)O)cccc1-n1c(C)cc(/C=C(/C#N)C(=O)NCc2ccccc2)c1C`, the cell number change was determined as 45.2%.
In the case of `CCOc1ccc(-n2nnnc2-c2nc3ccccc3s2)cc1`, the cell number change was -1.57%.
`CCOC(=O)C1(Cc2ccccc2)CCCN(C(=O)c2cn[nH]c2)C1` (centres undefined): under setting [2], the AC50 was 6.51 µM [rising, single point].
Regarding `CC(C)(C)NC(=O)NC(=O)CN1CCCCC1`, the cell number change was -27%.
For `COc1cc(C(=O)NCCc2c[nH]c3ccccc23)ccc1OCc1c(C)noc1C`, the concentration at half-maximal activity (AC50) under setting [1] was 0.411 µM [rising, full curve, poor fit].
Turning to `COc1ccc2[nH]c(=O)c(CN(CCCN(C)C)C(=O)Nc3ccccc3)cc2c1`, the cell number change was -1.05%.
For `Cc1cc(Cl)c(S(=O)(=O)N2CCN(c3ccc(F)cc3)CC2)cc1OCC(=O)NC1CCCCC1`, the AC50 reads like this: under setting [1], 6.51 µM [rising, single point]; under setting [2], 29.1 µM [rising, single point].
As to `COc1ccc(NC(=O)CSc2nc(O)cc(=O)n2-c2ccc(OC)cc2)cc1`, the cell number change was determined as 23%.
Turning to `CCOc1ccc(NC(=O)CSc2ccc3nnc(-c4cccnc4)n3n2)cc1`, the cell number change was -1.51%. In addition, the concentration at half-maximal activity (AC50) under setting [1] is 0.82 µM [rising, partial curve]. Besides, the AC50 under setting [2] is 6.51 µM [rising, single point].
Regarding `COc1ccc(CCN(C(=O)c2ccc(F)cc2)C2=CC3CCC(C2)N3C)cc1OC` (centres undefined), the cell number change was 1.9%. Moreover, under setting [2], the AC50 is 0.731 µM [falling, full curve, poor fit].
Take `S=C(NC1CCCCC1)NN(c1ccccc1)c1ccccc1`: the cell number change came out at 18.3%. The AC50 under setting [2] was 29.1 µM [rising, single point].
As to `COc1ccc(/C=C/C(=O)OCC(=O)Nc2ccc3[nH]c(=O)[nH]c3c2)cc1OC`, the AC50 under setting [1] was 0.146 µM [rising, full curve, poor fit].
On to `CS(=O)(=O)N1CCC(C(=O)N2CCC(Cc3ccccc3)CC2)CC1`, for which the concentration at half-maximal activity (AC50) under setting [2] is 2.06 µM [rising, single point].
For `COc1ccc(C(=O)N/N=C\c2coc3ccc(Cl)cc3c2=O)cc1`, the AC50 under setting [2] was 29.1 µM [falling, single point].
Regarding `CCNCc1cc2cc(C)ccc2[nH]c1=O`, the cell number change turned out to be 17.2%.
Consider `Cc1cc(NCc2ccc(F)cc2)nc2cc(Cl)ccc12`, for which the cell number change is -26.5%. For the same molecule, the half-maximal activity concentration (AC50) under setting [2] is 0.326 µM [rising, partial curve, poor fit].
With `CCn1c(=NC(=O)CN2C(=O)CCC2=O)sc2c(OC)ccc(OC)c21`, the cell number change was determined as 0.866%. Further, the AC50 under setting [2] is 0.0517 µM [rising, full curve, poor fit].
`COc1ccc2[nH]c(C)c(CCN3C(=O)C4CC=CCC4C3=O)c2c1` (centres undefined): the cell number change amounted to 2.18%.
Turning to `CC(C)CN(C(=O)C(C)N1C(=O)c2ccccc2C1=O)c1c(N)n(Cc2ccccc2)c(=O)[nH]c1=O` (centres undefined), under setting [2], the concentration at half-maximal activity (AC50) was 0.731 µM [rising, full curve].
With `COc1ccc(CN2CCN(C(=O)c3c(-c4ccccc4)noc3C)CC2)cc1F`, the cell number change was -9.34%. Further, under setting [2], the AC50 was 29.1 µM [falling, single point].
As for `O=C(c1cccs1)N(Cc1ccc(F)cc1)C1CCS(=O)(=O)C1` (centres undefined), the cell number change is -14.4%. Moreover, under setting [1], the AC50 is 6.51 µM [rising, single point]. Also, under setting [2], the AC50 is 0.58 µM [falling, single point].
As to `COC(=O)c1c(NC(=O)C2CC(=O)NN2Cc2ccccc2)sc(C)c1C` (centres undefined), the cell number change was -68.2%. For the same molecule, under setting [1], the AC50 was 8.2 µM [falling, partial curve]. Further, under setting [2], the AC50 is 5.8 µM [falling, partial curve].
In the case of `NC(=O)COC(=O)c1cc(-c2cccs2)nn1-c1ccccc1`, the cell number change was 27.8%.
For the molecule `CCOc1ccc(S(=O)(=O)NCC2(N3CCCCC3)CCCCC2)cc1`, the cell number change is -0.5%.
Still for that read-out and setting: to `CS(=O)(=O)N(CC(=O)N1CCCCCC1)c1cc(Cl)ccc1Cl` belongs 20.5%.
As to `CCOC(=O)c1cnc2c(C)cccc2c1NCCc1ccc(OC)c(OC)c1`, the cell number change was 46.1%. In addition, the AC50 under setting [1] is 0.82 µM [rising, full curve]. The AC50 under setting [2] is 0.731 µM [rising, full curve].
As to `O=C(N=C1SC2CS(=O)(=O)CC2N1Cc1ccc(F)cc1)C1CC1` (centres undefined), the cell number change is -3.98%. For the same molecule, under setting [2], the AC50 is 6.51 µM [rising, single point].
In the case of `O=C(c1cn(Cc2ccccc2)nc1-c1cccnc1)N1CCN(Cc2c(F)cccc2Cl)CC1`, the cell number change is -16.7%. Further, the concentration at half-maximal activity (AC50) under setting [2] was 29.1 µM [falling, single point].
On to `Cc1ccc(N2CCN(CCc3nc4cc(NC(=O)c5ccco5)ccc4n3C)CC2)cc1`, for which the cell number change was 23.9%.
On to `Cc1cc(C)nc(NC2=NC3CCCCC3N2)n1` (centres undefined), for which the cell number change amounted to 1.17%.
Regarding `O=C(Nc1cccc(S(=O)(=O)NC2=NCCC2)c1)c1ccc(OC(F)F)cc1`, the cell number change was -37.9%. The AC50 under setting [2] was 3.26 µM [falling, single point].
Regarding `COc1ccc(CCNC(=O)CCNC(=O)c2ccccc2Cl)cc1`, the cell number change was found to be 18.1%. Further, under setting [1], the AC50 was 6.51 µM [rising, partial curve, poor fit].
As to `COc1ccc(-c2csc(NC(=O)C3CC(=O)N(Cc4ccco4)C3)n2)cc1` (centres undefined), the cell number change amounted to 3%. Under setting [1], the half-maximal activity concentration (AC50) is 2.06 µM [rising, single point].
For `Cc1ccccc1NC(=S)N(Cc1ccccc1)Cc1cccnc1`, the AC50 under setting [1] is 5.17 µM [rising, partial curve].
Take `CC(C)(C)c1ccc(C(=O)NCCC(=O)N2CCN(c3ncccn3)CC2)cc1`: the concentration at half-maximal activity (AC50) under setting [2] is 0.731 µM [falling, full curve].
With `COc1ccccc1NC(=O)C1CCCN(S(=O)(=O)c2ccccc2)C1` (centres undefined), under setting [2], the AC50 is 4.11 µM [falling, full curve].
Regarding `CC(C)CC(NC(=O)C(NC(=O)C(Cc1ccc(OCc2ccccc2)cc1)NC(=O)OC(C)(C)C)C(C)C)C(N)=O` (stereo not drawn) (Boc-Tyr(Bn)-Val-Leu-NH2; configuration not given here), the cell number change was -34.1%. Besides, under setting [1], the half-maximal activity concentration (AC50) is 29.1 µM [falling, single point]. Also, under setting [2], the half-maximal activity concentration (AC50) is 16.4 µM [falling, single point].
With `C[C@]12CCC(=O)C=C1C=C[C@@H]1[C@@H]2CC[C@@]2(C)[C@H]1CC[C@@]21CCC(=O)O1`, the cell number change was determined as 12.8%. In addition, the concentration at half-maximal activity (AC50) under setting [2] is 18.4 µM [rising, single point].
`C/C(N)=C(/C#N)C(=O)COc1ccc(Cl)cc1Cl`: the cell number change was -36.5%. Moreover, the AC50 under setting [1] was 29.1 µM [falling, single point].
In the case of `COCCN1CCc2c(C)nc3c(-c4ccc(OC)c(OC)c4)cnn3c21`, the cell number change is -14.9%. Further, the AC50 under setting [2] was 29.1 µM [falling, single point].
In the case of `COc1ccc(CN(Cc2nc3ccccc3c(=O)[nH]2)C(=O)c2ccco2)cc1`, the cell number change is -2.1%.
Regarding `O=C(c1ccc2c(=O)n(CCc3ccccc3)c(=O)[nH]c2c1)N1CCN(c2ccccc2)CC1`, the cell number change was 3.42%.
With `COc1ccc(OC)c(/C=C/C(=O)OCC(=O)c2c(N)n(C)c(=O)n(C)c2=O)c1`, the cell number change was determined as 95.5%. Also, the half-maximal activity concentration (AC50) under setting [1] is 1.84 µM [falling, single point]. Further, the AC50 under setting [2] was 6.51 µM [falling, partial curve, poor fit].

One may read the AC50 as the concentration at which the activity in the assay is half-maximal.
